These are yes or no findings as the source states them, for the method shown. Binding seen in cells or lysates may run through a third protein. Some results given as binding are weak or reduced against the parent protein; the word gives no strength. Where a sequence is shown, tags or fusion partners need not be part of it.

Amino acid sequences for entries named in this document (tags omitted).
UniProt P78527: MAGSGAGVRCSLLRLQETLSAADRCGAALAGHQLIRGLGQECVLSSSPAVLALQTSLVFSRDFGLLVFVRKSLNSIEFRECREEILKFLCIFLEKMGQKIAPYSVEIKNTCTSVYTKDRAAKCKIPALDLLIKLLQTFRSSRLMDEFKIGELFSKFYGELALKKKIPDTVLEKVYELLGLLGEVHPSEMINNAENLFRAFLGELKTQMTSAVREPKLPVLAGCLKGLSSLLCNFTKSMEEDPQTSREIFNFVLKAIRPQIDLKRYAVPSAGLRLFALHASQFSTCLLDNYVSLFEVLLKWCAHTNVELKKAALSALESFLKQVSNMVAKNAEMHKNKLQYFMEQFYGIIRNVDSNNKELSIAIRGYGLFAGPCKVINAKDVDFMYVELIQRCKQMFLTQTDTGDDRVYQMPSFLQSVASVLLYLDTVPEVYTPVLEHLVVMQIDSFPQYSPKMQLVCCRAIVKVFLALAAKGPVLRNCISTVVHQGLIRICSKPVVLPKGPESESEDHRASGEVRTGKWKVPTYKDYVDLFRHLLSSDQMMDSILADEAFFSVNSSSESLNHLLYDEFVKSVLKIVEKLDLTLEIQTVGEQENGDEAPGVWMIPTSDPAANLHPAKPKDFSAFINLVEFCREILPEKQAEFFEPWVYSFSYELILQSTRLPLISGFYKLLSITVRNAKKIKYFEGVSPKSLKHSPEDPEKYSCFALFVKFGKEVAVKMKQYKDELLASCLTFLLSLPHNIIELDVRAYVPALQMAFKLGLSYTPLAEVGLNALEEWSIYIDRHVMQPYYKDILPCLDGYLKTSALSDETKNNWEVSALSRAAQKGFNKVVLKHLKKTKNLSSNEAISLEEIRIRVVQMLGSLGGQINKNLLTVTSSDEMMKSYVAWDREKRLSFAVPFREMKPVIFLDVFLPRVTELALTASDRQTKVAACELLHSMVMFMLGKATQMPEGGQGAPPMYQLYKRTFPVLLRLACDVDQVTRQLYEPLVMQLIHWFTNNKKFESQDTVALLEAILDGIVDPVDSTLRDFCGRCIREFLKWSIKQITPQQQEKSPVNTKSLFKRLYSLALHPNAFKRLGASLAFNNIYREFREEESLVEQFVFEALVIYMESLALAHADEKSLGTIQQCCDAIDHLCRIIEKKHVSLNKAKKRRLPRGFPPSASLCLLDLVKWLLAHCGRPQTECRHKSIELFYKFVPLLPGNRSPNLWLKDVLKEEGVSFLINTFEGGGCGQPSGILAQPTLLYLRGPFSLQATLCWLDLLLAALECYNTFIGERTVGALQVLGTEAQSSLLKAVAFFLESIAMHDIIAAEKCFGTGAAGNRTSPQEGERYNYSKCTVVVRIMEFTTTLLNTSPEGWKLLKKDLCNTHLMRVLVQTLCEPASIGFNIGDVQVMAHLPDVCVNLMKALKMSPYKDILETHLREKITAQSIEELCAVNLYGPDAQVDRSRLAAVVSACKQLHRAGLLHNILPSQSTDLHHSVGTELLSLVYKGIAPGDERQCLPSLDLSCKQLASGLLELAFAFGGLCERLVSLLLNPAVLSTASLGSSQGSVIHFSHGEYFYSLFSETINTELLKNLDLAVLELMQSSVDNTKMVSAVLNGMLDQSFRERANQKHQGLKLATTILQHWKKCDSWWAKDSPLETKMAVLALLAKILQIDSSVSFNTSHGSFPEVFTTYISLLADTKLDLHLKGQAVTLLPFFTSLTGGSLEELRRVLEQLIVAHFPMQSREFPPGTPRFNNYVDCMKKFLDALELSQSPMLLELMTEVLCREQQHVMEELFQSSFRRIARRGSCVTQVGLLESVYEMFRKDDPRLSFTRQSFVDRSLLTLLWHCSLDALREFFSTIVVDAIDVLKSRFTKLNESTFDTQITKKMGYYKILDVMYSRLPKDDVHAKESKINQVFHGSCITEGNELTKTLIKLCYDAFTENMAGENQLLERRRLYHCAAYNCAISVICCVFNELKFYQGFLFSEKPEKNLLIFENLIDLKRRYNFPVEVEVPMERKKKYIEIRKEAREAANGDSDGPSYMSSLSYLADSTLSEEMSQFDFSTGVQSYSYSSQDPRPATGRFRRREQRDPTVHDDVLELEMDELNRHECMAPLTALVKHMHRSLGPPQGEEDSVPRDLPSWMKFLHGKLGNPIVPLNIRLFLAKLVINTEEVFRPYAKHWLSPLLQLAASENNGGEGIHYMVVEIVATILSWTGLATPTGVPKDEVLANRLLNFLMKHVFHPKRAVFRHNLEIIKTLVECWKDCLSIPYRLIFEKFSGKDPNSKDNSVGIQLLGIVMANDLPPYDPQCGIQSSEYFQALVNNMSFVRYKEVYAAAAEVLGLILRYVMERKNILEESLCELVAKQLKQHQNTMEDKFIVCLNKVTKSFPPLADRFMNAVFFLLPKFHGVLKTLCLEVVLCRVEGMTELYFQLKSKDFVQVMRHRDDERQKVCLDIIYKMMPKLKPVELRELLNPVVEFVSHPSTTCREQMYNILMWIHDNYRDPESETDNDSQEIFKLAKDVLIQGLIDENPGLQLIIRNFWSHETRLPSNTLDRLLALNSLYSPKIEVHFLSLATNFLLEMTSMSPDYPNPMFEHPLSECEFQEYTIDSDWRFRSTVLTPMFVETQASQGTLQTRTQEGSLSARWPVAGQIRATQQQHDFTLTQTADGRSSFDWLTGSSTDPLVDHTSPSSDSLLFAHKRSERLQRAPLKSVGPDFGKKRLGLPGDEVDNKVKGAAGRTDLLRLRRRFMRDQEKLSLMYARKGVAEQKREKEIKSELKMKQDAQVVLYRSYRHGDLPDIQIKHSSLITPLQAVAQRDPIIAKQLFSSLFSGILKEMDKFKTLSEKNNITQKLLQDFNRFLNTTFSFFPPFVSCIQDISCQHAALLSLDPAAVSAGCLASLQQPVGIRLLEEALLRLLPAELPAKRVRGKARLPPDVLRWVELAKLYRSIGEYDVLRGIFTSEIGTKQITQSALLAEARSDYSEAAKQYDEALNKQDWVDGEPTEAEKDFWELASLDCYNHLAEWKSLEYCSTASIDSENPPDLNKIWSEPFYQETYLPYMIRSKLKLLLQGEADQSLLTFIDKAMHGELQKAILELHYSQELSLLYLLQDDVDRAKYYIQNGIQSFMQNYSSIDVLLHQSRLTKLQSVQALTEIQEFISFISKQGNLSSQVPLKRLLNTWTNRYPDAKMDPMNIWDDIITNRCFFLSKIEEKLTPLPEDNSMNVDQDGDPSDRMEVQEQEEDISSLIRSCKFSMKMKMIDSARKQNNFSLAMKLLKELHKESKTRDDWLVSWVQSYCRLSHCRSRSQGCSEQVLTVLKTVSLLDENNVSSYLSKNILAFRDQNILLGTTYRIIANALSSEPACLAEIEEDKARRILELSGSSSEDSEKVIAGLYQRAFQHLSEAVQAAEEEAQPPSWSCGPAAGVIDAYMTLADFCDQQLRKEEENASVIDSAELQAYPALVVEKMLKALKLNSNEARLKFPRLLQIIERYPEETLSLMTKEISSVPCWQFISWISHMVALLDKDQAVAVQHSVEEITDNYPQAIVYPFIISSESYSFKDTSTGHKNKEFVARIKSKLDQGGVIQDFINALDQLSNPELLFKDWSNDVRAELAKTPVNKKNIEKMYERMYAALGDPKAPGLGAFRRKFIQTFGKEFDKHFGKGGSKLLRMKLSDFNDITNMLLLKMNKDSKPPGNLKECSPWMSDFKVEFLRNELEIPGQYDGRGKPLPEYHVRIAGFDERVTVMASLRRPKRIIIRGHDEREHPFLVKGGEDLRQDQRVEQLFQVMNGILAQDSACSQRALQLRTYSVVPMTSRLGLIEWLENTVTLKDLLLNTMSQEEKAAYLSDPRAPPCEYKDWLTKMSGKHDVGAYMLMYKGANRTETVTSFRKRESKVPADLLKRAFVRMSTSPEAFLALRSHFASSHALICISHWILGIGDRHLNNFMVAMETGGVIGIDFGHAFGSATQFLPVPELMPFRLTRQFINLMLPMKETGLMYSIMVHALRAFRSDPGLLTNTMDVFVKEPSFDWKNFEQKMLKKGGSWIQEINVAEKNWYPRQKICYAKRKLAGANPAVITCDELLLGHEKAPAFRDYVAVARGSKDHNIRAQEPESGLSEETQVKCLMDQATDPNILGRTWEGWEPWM

In the experiment the target is T1, N-terminally 3xHA-tagged human RXFP3 (relaxin family peptide 3 receptor) (human) (UniProt Q9NSD7).
T1 sequence: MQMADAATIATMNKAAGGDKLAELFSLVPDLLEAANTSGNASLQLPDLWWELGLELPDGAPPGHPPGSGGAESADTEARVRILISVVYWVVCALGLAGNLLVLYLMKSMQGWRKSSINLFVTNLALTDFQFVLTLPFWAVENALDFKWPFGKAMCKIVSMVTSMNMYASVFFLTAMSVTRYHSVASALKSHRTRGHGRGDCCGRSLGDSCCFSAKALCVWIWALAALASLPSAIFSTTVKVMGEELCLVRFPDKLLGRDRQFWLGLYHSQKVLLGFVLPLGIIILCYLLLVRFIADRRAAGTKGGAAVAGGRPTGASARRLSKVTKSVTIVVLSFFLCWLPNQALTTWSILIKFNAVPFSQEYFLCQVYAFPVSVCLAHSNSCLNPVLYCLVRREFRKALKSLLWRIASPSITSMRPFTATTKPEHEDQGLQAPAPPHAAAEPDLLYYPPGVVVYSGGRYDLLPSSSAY
Briefly: co-IP; anti-HA affinity beads, eluted in Laemmli buffer, immunoblot.

With “activated PRKDC (pPRKDC) (from UniProt P78527 1-4128)”, the binding entry was “binds”.

The record behind these values is publication PMC6932917.
